PubChem BioAssay AID1347423 (Functional Genomics Laboratory (NCATS/FGL), 2020)
Among all 52,000 sequences or so, about 210 (0.4%) were called active.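 How the source made its calls: active means gene whose silencing raises cell survival under the drug, median off-target-corrected z-score across its silencing RNAs 2 or more; inactive means the rest.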 The list shows a part of the results.

Assay: Resistance to Poly (ADP-Ribose) Polymerase inhibitor: Gene Identification via Genome-wide siRNA Screen
Conditions: mouse BRCA2 R2336H ES cells, olaparib, CellTiter-Glo viability; stronger effect = higher value
Method in brief: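 Genome-wide siRNA screen (3 siRNAs/gene, 20 nM) in mouse ES cells carrying hypomorphic BRCA2 R2336H; olaparib 500 nM added 48 h post-transfection, CellTiter-Glo viability 72 h later. Normalized to plate-median negative control; MAD z-scores, gene median, seed-adjusted.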

Sequence | z-score
GGACAUAAAGAAGGAACUUTT against Myt1 | inactive: -0.364
GGAGAAGAUGUCAUCCAGATT against Zfp467 | inactive: -0.356
GCAGUUAAGGACAAUCAUGTT against 6330505N24Rik | inactive: 2.67
GCCAUUCUAACUCUGCCUCTT against Olfr639 | inactive: -0.692
GCGUCCUGUUCUGUAUCAATT against Tas2r126 | inactive: 0.0467
GGCCUUGUAUAAAACACAUTT against Pah | inactive: 2.09
GGCAGAACUACUUUUAUAGTT against Cldn17 | inactive: 0.727
GGGAUGGUAACAGGAAGUGTT against A530016L24Rik | inactive: 0.00853
GAAGGAAGUUGGAAAGAACTT against Bcl2a1c | inactive: -0.687
GCGAGUUCGGAAGAAGUAUTT against Ddx41 | inactive: -0.638
GCUGGUUACUCCCAAGACGTT against Dlgap2 | inactive: 0.659
GUCCACGAAACUAAAACUGTT against Csh1 | inactive: 0.33
CCACGUCCUCUACUUGUAUTT against Nmbr | inactive: 0.2
GCAACUUACAAGCAGGCCGTT against Fcgr3 | inactive: 0.709
GCCUAGUCCACUUUAUCCUTT against Def8 | inactive: 0.514
GGACAUUAGAGAAUCAUUATT against 4.93E+23 | inactive: 1.62
GGAAAUGGUUAACAUCAUUTT against Mtmr9 | inactive: -0.0027
GGUUUAUCAGAAAGCCUCGTT against Dlgap1 | inactive: 0.892
CGGCAGUCGUGAGACAUAUTT against Camk1d | inactive: -2.97
GGAACCUAUUUUUUCGUAUTT against 5830483C08Rik | inactive: -0.18
GGUCCUUAUCGCUUGGAUGTT against 4932416F07Rik | inactive: -0.374
GGCAAUUUUUACACAGAAATT against Pink1 | inactive: -1.67
UUGGGAAAUCGAUUUUACCTT against LOC433762 | inactive: 1.87
GCUUGGUGUUAAUUUGUUGTT against 4632412E09Rik | inactive: 0.261
GGAUUUCAAAUGGAAACAATT against V1ra2 | inactive: -0.987
GCUAUUAUCAUUGUGCAAUTT against Tas2r125 | inactive: 0.794

Copied from the list:
z-score with GGAGAAGAUGUCAUCCAGATT against Zfp467 is entered as inactive: -0.356
z-score with GGCAAUUUUUACACAGAAATT against Pink1 is entered as inactive: -1.67
z-score with GCUAUUAUCAUUGUGCAAUTT against Tas2r125 is entered as inactive: 0.794
z-score with GGAAAUGGUUAACAUCAUUTT against Mtmr9 is entered as inactive: -0.0027
z-score with GCCUAGUCCACUUUAUCCUTT against Def8 is entered as inactive: 0.514
z-score with GGUCCUUAUCGCUUGGAUGTT against 4932416F07Rik is entered as inactive: -0.374

(next part)

Sequence | z-score
GGAGACACUUUCCGGAUUATT against Cbl | inactive: -0.838
CCUUUAGUGAGAUUAAGCATT against 1700064K09Rik | inactive: -0.185
GCCCAUGUUAGAGGUUUUGTT against Rshl2 | inactive: 1.07
GGUUCUACAUGUGAAACAATT against Zfp143 | inactive: -2.03
GGGCUCAGUAGUAAAUAUGTT against Zswim1 | inactive: -0.52
GGCUUAUAGGAGGCUCUCUTT against Prop1 | inactive: -0.27
GGCAUUAUAAGUGACCUUATT against Smarcc1 | inactive: -2.13
GGACACAGCAAGGAAGAAATT against Mad2l1bp | inactive: 0.187
GGAAGAUUGAAUUUGACUCTT against Rpn2 | inactive: -0.115
GGAAAGAUGAGAUCCUAGGTT against BC032204 | inactive: 2.18
GGGAGAUAACAUAAGUCAUTT against A130009K11Rik | inactive: 0.94
GCCAAUUUGAAGGUUUUCATT against Tlr8 | inactive: -0.83
GGUGGACAUUCCUAAGAUUTT against Eif2c1 | inactive: 0.739
GGAGGUGAAGAUGGCCAUGTT against Olfr285 | inactive: -0.996
CGUUCACCGUCUCCAAGUATT against Cav3 | inactive: -3.21
GGCACUAAUUGAAGAAUUUTT against 4930544G11Rik | inactive: 1.06
GGUAGUAGGAGGAAUGACGTT against 4633402D15Rik | inactive: -1.72
GGGUAUUAUAAAAACCCAGTT against Ccrn4l | inactive: 2.01
GGAGACAAACAAAAUCAUCTT against Sbsn | inactive: 1.28
GGAAUGAGUUAGAAUAGCGTT against BC004004 | inactive: 1.24
CCCAAAUACUCCAAUUAUATT against Fzd3 | inactive: 0.889
GCUCACCCAACAAUAUCCATT against Slc17a8 | inactive: 0.0101
GGACCUCGAUCUCUCUUAUTT against Lrfn3 | inactive: -0.788
GGUCAGCUUCAGAGAAAACTT against Aire | inactive: 0.0039
GGCUCUGUUUAUCCUGGAGTT against Pcdha7 | inactive: 0.702
GGUCAUGGAAGAUUCCAAGTT against Atp6v1c2 | inactive: -0.23

Sequence | z-score
CCAGGAUUACAUCCGGACATT against D530025C17Rik | inactive: 0.0395
GGGCCAAAACAAUUAAGAATT against Kif5b | inactive: 0.0478
GGUACAAUCGAAAGUACUUTT against 2210013K02Rik | inactive: -0.00963
GGUUUAUAGCUUUUUGGUCTT against Tiam1 | inactive: 1.24
GUGCAGAAGCUGAUGCACCTT against Pou3f1 | inactive: 0.539
GGAUCAGAAGUUGAUAGAUTT against 4930429O20Rik | inactive: -1.53
GGCUUAAAGAAGAAAAAGATT against 2600001J17Rik | inactive: -2.02
GGUAAUGCUGUGGAGUCUUTT against Wdr53 | inactive: -0.882
CCACGCUAACUGGAAAGAATT against Dusp19 | inactive: -0.0447
GGAACUCAAAUUGAAAAGGTT against Manea | inactive: 0.449
GGAGAAGGCAAAGAAAGGATT against Foxa3 | inactive: 1.38
GGAUGAGCUUUAAAAUAGATT against Mc1r | inactive: 0.807
GGACCAUGUGGACUUUAGCTT against Sema7a | inactive: -1.18
CCGUCAUCUGCUCUGAUUUTT against Cd5 | inactive: -0.0161
CCUUCAAGAUAAAUUGACATT against AW413431 | inactive: -1
GGAUAACCCUCAGAAGUCCTT against Was | inactive: 0.0235
GCAAGUGGAGUUUAUUGAUTT against D2Bwg0891e | inactive: 0.193
GCACAUCGAAAAUGCCCUGTT against Cpt1c | inactive: -1.04
CGAACUGGGCAGUAUAAACTT against Fgf2 | inactive: 0.084
GCGGGACUACACUCUUAAGTT against Car15 | inactive: -1.69
GGCAGUGGACCACAUCAACTT against Eno2 | inactive: 0.353
GGAUGUCAGGCUUUGUACATT against Alg6 | inactive: 0.36
GGUCGUGUAUGUCACUGCATT against Gabt4 | inactive: -0.176
GGACUUGAAAUUAGCAAAATT against Arhgef3 | inactive: 0.95
CGAGUUUAAAGACCUGGAGTT against Gjb6 | inactive: 0.141
CCCUUGACACUUAAUAAAGTT against Zfpm1 | inactive: 1.29

Sequence | z-score
GGGUUGAUCCCUUUGAUUCTT against AI132321 | inactive: 0.882
GGUCCUCAUGGGCAACAUUTT against Olfr624 | inactive: -0.904
GGGACAUUGCUCAAGAUUATT against C730048E16Rik | inactive: 1.48
CCAUGAAGUAUGGAACAACTT against Mccc1 | inactive: 0.255
GCCAUUGGGUGUAACAUUUTT against Mpp6 | inactive: 0.218
GGUAGAGCUAAGUAAAGAGTT against 2310058A11Rik | inactive: -1.2
GGGAAAAUAACGGUGAAUATT against Hspb8 | inactive: 0.222
CCUGUAAGAACCUUGCCUATT against Sytl3 | inactive: 0.413
GGAGCUAGUAUGUUCAACATT against Ubqln1 | inactive: -1.05
GGCGGCCUAUAUGAGGUUCTT against Cftr | inactive: -0.126
GGAGGCAUGAUAAGCUUCGTT against Pmm1 | inactive: -0.45
GCGGCUACGUUUAUGAAGATT against Hlcs | inactive: -0.316
GCUCAACCUGAAAACGUAUTT against Ptcd1 | inactive: 0.823
GCGGAGAAUAUCUUGCUUATT against 2310007B03Rik | inactive: 1.36
GCAAAGAAGUGUAUGUGUUTT against Olfr273 | inactive: 0.291
GUCUGUGACCAGUUCCAUUTT against A930011G24 | inactive: 0.741
GCACAGAAGUUAUUUAGCUTT against 5832424M12 | inactive: 0.364
GCUUUGAAGUUCCUCAUGCTT against BC052328 | inactive: -1.35
GGGAGAAAUUUGAUAGUUUTT against 5330414D10Rik | inactive: -0.947
GGAAAUAUAGUAAAGCAGATT against BC006933 | inactive: -0.0719
GGAAUCUAGACCUAACUUCTT against 6230401O10Rik | inactive: 1.03
GGACGAGUUCAAGAGUCUCTT against Elavl3 | inactive: 0.0357
GGAGGAAAAGAGACAGCUCTT against Ankrd25 | inactive: -0.0791
CGAUGGCCCAUAAAUACUUTT against Gemin4 | inactive: -0.904
GGUGUGAUGCUUGAGUGUCTT against A430090E18Rik | inactive: -1.07
GGAGGGAAAACCACAAGACTT against Dppa4 | inactive: 1
